Data published in the supplement of paper PMC4604168 (melanoma cell lines).
The other results are listed elsewhere or left out. Many values rest on one well or one pass, so single values are uncertain.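 The apoptosis fraction was the count of cleaved-PARP antibody-stained nuclei relative to all DNA-stained nuclei, imaged in 1,536-well plates. Screening doses were set so most cells survived, and baseline and induced cleaved-PARP levels vary greatly across cell lines.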

Assays:
Assay in all cases: cleaved PARP positive nuclei fraction relative to DMSO control; melanoma cells; higher = more apoptosis
Conditions in all cases: library dose: low library concentration; 72 h
CBRC034 = test system: CBRC034 (line from a melanoma biopsy)
COLO792 = test system: COLO792
COLO800 = test system: COLO800
COLO829 = test system: COLO829
G361 = test system: G361
IPC-298 = test system: IPC-298
IST-MEL1 = test system: IST-MEL1
LB2518-MEL = test system: LB2518-MEL
LOXIMVI = test system: LOXIMVI
MZ2-MEL = test system: MZ2-MEL
MeWo = test system: MeWo
RPMI7951 = test system: RPMI7951
RVH-421 = test system: RVH-421
SkMel28 = test system: SkMel28
SkMel30 = test system: SkMel30
SkMel5 = test system: SkMel5
UACC257 = test system: UACC257
UACC62 = test system: UACC62

Structure (SMILES)	cleaved PARP positive nuclei fraction (CBRC034) [%]	cleaved PARP positive nuclei fraction (COLO792) [%]	cleaved PARP positive nuclei fraction (COLO800) [%]	cleaved PARP positive nuclei fraction (COLO829) [%]	cleaved PARP positive nuclei fraction (G361) [%]	cleaved PARP positive nuclei fraction (IPC-298) [%]	cleaved PARP positive nuclei fraction (IST-MEL1) [%]	cleaved PARP positive nuclei fraction (LB2518-MEL) [%]	cleaved PARP positive nuclei fraction (LOXIMVI) [%]	cleaved PARP positive nuclei fraction (MZ2-MEL) [%]	cleaved PARP positive nuclei fraction (MeWo) [%]	cleaved PARP positive nuclei fraction (RPMI7951) [%]	cleaved PARP positive nuclei fraction (RVH-421) [%]	cleaved PARP positive nuclei fraction (SkMel28) [%]	cleaved PARP positive nuclei fraction (SkMel30) [%]	cleaved PARP positive nuclei fraction (SkMel5) [%]	cleaved PARP positive nuclei fraction (UACC257) [%]	cleaved PARP positive nuclei fraction (UACC62) [%]
Nc1cccc2c1CN(C1CCC(=O)NC1=O)C2=O (centres undefined) [lenalidomide] + COC(=O)c1sccc1S(=O)(=O)Nc1ccc(Nc2ccccc2)cc1OC [GSK0660] (first compound 1 µM, partner dose 1 µM)	77.8	105	168	137	177	41	87.5	188	26.1	178	45.8	108	94.3	81.7	7.43	70.4	95.3	265
COc1cc(Nc2ncc(F)c(Nc3ccc4c(n3)NC(=O)C(C)(C)O4)n2)cc(OC)c1OC [Tamatinib] + COc1ccc(COc2ccc(Cc3cnc(N)nc3N)cc2OC)cc1 [GW2580] (first compound 0.4 µM, partner dose 1 µM)	40.2	190	151	93.1	134	162	115	189	36.4	161	37.9	46.6	109	130	96.9	147	109	40
NC(=O)Nc1cc(-c2cccc(F)c2)sc1C(=O)N[C@H]1CCCNC1 + Cc1cc([N+](=O)[O-])ccc1NS(=O)(=O)c1cc(Cl)ccc1Cl [FH535] (first compound 0.02 µM, partner dose 1 µM)	1550	63.8	67.7	85.9	256	47.6	84.6	117	36.8	92.8	119	88.2	47.8	59.3	54.5	119	41.5	136
CO[C@@H]1[C@H](N(C)C(=O)c2ccccc2)C[C@H]2O[C@]1(C)n1c3ccccc3c3c4c(c5c6ccccc6n2c5c31)C(=O)NC4 [Midostaurin] + Oc1cc(-c2nc(-c3ccccc3)[nH]c2-c2ccncc2)ccc1Cl [L779450] (first compound 0.08 µM, partner dose 0.2 µM)	89.9	119	83.1	87.2	57	105	72.3	119	41	79.6	60.4	94.4	131	224	46.2	30.7	104	123
NC(=O)Nc1cc(-c2cccc(F)c2)sc1C(=O)N[C@H]1CCCNC1 + CCc1ccc(CCOc2ccc(CC3SC(=O)NC3=O)cc2)nc1 [pioglitazone] (first compound 0.02 µM, partner dose 2 µM)	97.1	102	146	127	23.1	112	72.2	63.9	31.5	66.8	111	81.8	44.4	119	51.6	60	49.7	111
Cn1nnc2c(C(N)=O)ncn2c1=O [temozolomide] + COc1ccc(-c2ccc3c(N4CCOCC4)nc(N4C[C@@H](C)O[C@@H](C)C4)nc3n2)cc1CO [KU0063794] (first compound 2 µM, partner dose 0.02 µM)	38.2	104	111	59.3	115	110	122	64.1	41.9	59.8	66.2	70.9	251	94.2	110	84.4	188	142
CO[C@@H]1[C@H](N(C)C(=O)c2ccccc2)C[C@H]2O[C@]1(C)n1c3ccccc3c3c4c(c5c6ccccc6n2c5c31)C(=O)NC4 [Midostaurin] + Cc1cc([N+](=O)[O-])ccc1NS(=O)(=O)c1cc(Cl)ccc1Cl [FH535] (first compound 0.08 µM, partner dose 1 µM)	211	118	261	206	291	90.8	79.1	403	79.7	123	33.3	50.5	137	181	59.8	73.5	81.5	111
Nc1cccc2c1CN(C1CCC(=O)NC1=O)C2=O (centres undefined) [lenalidomide] + Cc1cc([N+](=O)[O-])ccc1NS(=O)(=O)c1cc(Cl)ccc1Cl [FH535] (first compound 1 µM, partner dose 1 µM)	221	130	75.7	133	307	89.2	47.5	83.1	106	70.5	52.5	304	24.8	101	115	70.7	59.6	32.7
Cn1nnc2c(C(N)=O)ncn2c1=O [temozolomide] + c1cc(-c2cnn3cc(-c4ccc(OCCN5CCCCC5)cc4)cnc23)ccn1 [Dorsomorphin] (first compound 2 µM, partner dose 0.4 µM)	59.3	72.7	84.7	81.1	146	192	42.2	70.6	22.9	170	27	41.6	80.6	100	157	133	69.2	171
COCC[n+]1c2c(n(Cc3cnccn3)c1C)C(=O)c1ccccc1C2=O + O=S(=O)(c1ccccc1)N(CC(F)(F)F)c1ccc(C(O)(C(F)(F)F)C(F)(F)F)cc1 [T0901317] (first compound 0.0004 µM, partner dose 1.4 µM)	83.2	66.2	424	178	106	125	93.4	46.3	113	73.9	107	40.7	110	175	97.3	115	64.6	92.6
NC(=O)Nc1cc(-c2cccc(F)c2)sc1C(=O)N[C@H]1CCCNC1 + CCCCCCCCCCCC1=C(O)C(=O)C=C(O)C1=O [Embelin] (first compound 0.02 µM, partner dose 1.2 µM)	205	76.7	217	77.1	162	97.8	221	55.1	29.4	32.2	91.6	114	97.1	104	12.6	97.8	159	38.4
Cc1nc(Nc2ncc(C(=O)Nc3c(C)cccc3Cl)s2)cc(N2CCN(CCO)CC2)n1 [dasatanib] + CC(C)CCN1c2nc(Nc3cc(F)c(O)c(F)c3)ncc2N(C)C(=O)C1C [BID1870] (first compound 0.004 µM, partner dose 0.2 µM)	300	287	228	60.4	343	175	100	268	76.8	280	159	143	56.9	171	69.8	89.3	195	64.5
Cn1c(Nc2ccc(C(F)(F)F)cc2)nc2cc(Oc3ccnc(-c4ncc(C(F)(F)F)[nH]4)c3)ccc21 + CCc1ccc(CCOc2ccc(CC3SC(=O)NC3=O)cc2)nc1 [pioglitazone] (first compound 0.08 µM, partner dose 2 µM)	106	229	88.5	85	229	86.3	133	75.5	150	73.4	73.2	30.8	108	251	84.4	39.6	954	154
C#Cc1cccc(Nc2ncnc3cc(OCCOC)c(OCCOC)cc23)c1 [erlotinib] + COC(=O)c1sccc1S(=O)(=O)Nc1ccc(Nc2ccccc2)cc1OC [GSK0660] (first compound 0.8 µM, partner dose 1 µM)	43.2	85.3	64.5	155	83	35.4	29	75.7	74	111	48.2	179	64.3	72.8	48.1	67	238	151
C[C@@H]1CCN(C(=O)CC#N)C[C@@H]1N(C)c1ncnc2[nH]ccc12 + O=C1NC(=O)/C(=C/c2ccc(-c3ccc(F)cc3O)o2)S1 [AS252424] (first compound 1 µM, partner dose 1 µM)	120	34.2	135	60.7	151	17.6	110	53.9	104	87.5	268	82.8	23.7	153	27.5	57	49.5	106
COCC[n+]1c2c(n(Cc3cnccn3)c1C)C(=O)c1ccccc1C2=O + COC(=O)c1sccc1S(=O)(=O)Nc1ccc(Nc2ccccc2)cc1OC [GSK0660] (first compound 0.0004 µM, partner dose 1 µM)	44.5	96.9	252	121	97	151	117	278	80	136	90.2	126	77.4	108	610	78.8	45.5	358
Nc1cccc2c1CN(C1CCC(=O)NC1=O)C2=O (centres undefined) [lenalidomide] + Oc1nc(-c2ccc(C(F)(F)F)cc2)nc2c1CSCC2 [XAV939] (first compound 1 µM, partner dose 2 µM)	38.9	80.7	217	90.1	101	101	135	75.5	51.7	112	25.4	39.4	94.5	175	47.7	64.8	143	95.3
CC(C)(C)c1cnc(CSc2cnc(NC(=O)C3CCNCC3)s2)o1 + Cc1cc([N+](=O)[O-])ccc1NS(=O)(=O)c1cc(Cl)ccc1Cl [FH535] (first compound 0.01 µM, partner dose 1 µM)	112	82.7	101	88.2	214	63.8	184	92.2	89.3	142	27.5	72.9	56.5	89	167	67.8	86.8	48.9

Random excerpt: 2 entries already listed, in no set order.
Structure (SMILES)	cleaved PARP positive nuclei fraction (CBRC034) [%]	cleaved PARP positive nuclei fraction (COLO792) [%]	cleaved PARP positive nuclei fraction (COLO800) [%]	cleaved PARP positive nuclei fraction (COLO829) [%]	cleaved PARP positive nuclei fraction (G361) [%]	cleaved PARP positive nuclei fraction (IPC-298) [%]	cleaved PARP positive nuclei fraction (IST-MEL1) [%]	cleaved PARP positive nuclei fraction (LB2518-MEL) [%]	cleaved PARP positive nuclei fraction (LOXIMVI) [%]	cleaved PARP positive nuclei fraction (MZ2-MEL) [%]	cleaved PARP positive nuclei fraction (MeWo) [%]	cleaved PARP positive nuclei fraction (RPMI7951) [%]	cleaved PARP positive nuclei fraction (RVH-421) [%]	cleaved PARP positive nuclei fraction (SkMel28) [%]	cleaved PARP positive nuclei fraction (SkMel30) [%]	cleaved PARP positive nuclei fraction (SkMel5) [%]	cleaved PARP positive nuclei fraction (UACC257) [%]	cleaved PARP positive nuclei fraction (UACC62) [%]
Nc1cccc2c1CN(C1CCC(=O)NC1=O)C2=O (centres undefined) [lenalidomide] + Cc1cc([N+](=O)[O-])ccc1NS(=O)(=O)c1cc(Cl)ccc1Cl [FH535] (first compound 1 µM, partner dose 1 µM)	221	130	75.7	133	307	89.2	47.5	83.1	106	70.5	52.5	304	24.8	101	115	70.7	59.6	32.7
CC(C)(C)c1cnc(CSc2cnc(NC(=O)C3CCNCC3)s2)o1 + Cc1cc([N+](=O)[O-])ccc1NS(=O)(=O)c1cc(Cl)ccc1Cl [FH535] (first compound 0.01 µM, partner dose 1 µM)	112	82.7	101	88.2	214	63.8	184	92.2	89.3	142	27.5	72.9	56.5	89	167	67.8	86.8	48.9
